Some of the results follow. Repeats are few or missing, and single values can be far off.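 Cells were imaged in 1,536-well plates, and nuclei stained with an antibody against cleaved PARP were counted against all DNA-stained nuclei to give the apoptosis fraction. Screening doses were chosen to leave most cells alive, and resting and induced cleaved-PARP levels differ strongly between cell lines.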

Among the test systems are 501Mel; A101D; A2058; A375; C32; CBRC008; CBRC013; CBRC014; CBRC016; CBRC017.
Holding throughout (assay): cleaved PARP positive nuclei fraction relative to DMSO control; melanoma cells; higher = more apoptosis
Holding throughout (conditions): library dose: low library concentration; 72 h

As for `C[C@]12O[C@H](C[C@]1(O)CO)n1c3ccccc3c3c4c(c5c6ccccc6n2c5c31)CNC4=O` [Lestaurtinib] + O=C(Nc1cccc(Cl)c1)Nc1ncc(CCNc2ncnc3ccsc23)s1 [SNS314] (first compound 0.004 µM, partner dose 0.0008 µM), the “cleaved PARP positive nuclei fraction” value in the experiment on 501Mel worked out at 99.7%; in the experiment on A101D it was 55.9%; with A2058, 45.1%; in the experiment on A375, 132%; in the experiment on C32 it was 95.8%; in the experiment on CBRC008 (line from a melanoma biopsy), 31.2%. Further, the “cleaved PARP positive nuclei fraction” value is 117% with CBRC013, 71.5% with CBRC014, 44.8% in the experiment on CBRC016 (line from a melanoma biopsy) and 88.2% in the experiment on CBRC017 (line from a melanoma biopsy).
In the case of `C[As](C)SC[C@H](NC(=O)CC[C@H](N)C(=O)O)C(=O)NCC(=O)O` [Darinaparsin] + C=CCn1c(=O)c2cnc(Nc3ccc(N4CCN(C)CC4)cc3)nc2n1-c1cccc(C(C)(C)O)n1 [MK1775] (first compound 0.4 µM, partner dose 0.02 µM), the “cleaved PARP positive nuclei fraction” value in the experiment with 501Mel is 96.3%; with A101D it was 60.7%; with A2058, 33.9%; with A375, 673%; in the experiment on C32 it was 62.2%; in the experiment on CBRC008, 47.5%. Besides, the “cleaved PARP positive nuclei fraction” value was found to be 99.6% in the experiment with CBRC013, 87.2% with CBRC014, 112% in the experiment on CBRC016 and 93.2% with CBRC017.
On to `N.N.[Cl][Pt][Cl]` [cisplatin] + CC1(C)NC(=O)N(c2ccc([N+](=O)[O-])c(C(F)(F)F)c2)C1=O [nilutamide] (first compound 1.6 µM, partner dose 1 µM), for which the “cleaved PARP positive nuclei fraction” value is 171% with 501Mel; 188% with A101D; 136% with A2058; 150% in the experiment with A375; 130% in the experiment with C32; 336% in the experiment with CBRC008. The “cleaved PARP positive nuclei fraction” value was 86.2% in the experiment with CBRC013, 106% with CBRC014, 48.8% in the experiment on CBRC016 and 126% in the experiment with CBRC017.
Take `N.N.[Cl][Pt][Cl]` [cisplatin] + CC(C)(C)c1cnc(CSc2cnc(NC(=O)C3CCNCC3)s2)o1 [SNS-032] (first compound 1.6 µM, partner dose 0.01 µM): the “cleaved PARP positive nuclei fraction” value was 100% in the experiment on 501Mel; 71.5% in the experiment with A101D; 144% with A2058; 116% in the experiment on A375; 104% with C32; 62.5% in the experiment with CBRC008. The “cleaved PARP positive nuclei fraction” value came to 137% with CBRC013, 87.9% in the experiment on CBRC014 (line from a melanoma biopsy), 119% with CBRC016 and 217% in the experiment on CBRC017.
Turning to `C[C@]12O[C@H](C[C@]1(O)CO)n1c3ccccc3c3c4c(c5c6ccccc6n2c5c31)CNC4=O` [Lestaurtinib] + O=C(O)c1ccc(-c2c[nH]c3ncc(-c4ccccc4)cc23)cc1C1CCCC1 [GSK650394] (first compound 0.004 µM, partner dose 0.16 µM), the “cleaved PARP positive nuclei fraction” value in the experiment with 501Mel is 86.9%; in the experiment on A101D it was 360%; in the experiment on A2058, 167%; in the experiment with A375, 89.3%; in the experiment on C32, 53.9%; in the experiment with CBRC008, 198%. In addition, the “cleaved PARP positive nuclei fraction” value with CBRC013 worked out at 111%; in the experiment on CBRC014, 98.8%; in the experiment on CBRC016, 177%; in the experiment with CBRC017, 112%.
In the case of `C[C@]12O[C@H](C[C@]1(O)CO)n1c3ccccc3c3c4c(c5c6ccccc6n2c5c31)CNC4=O` [Lestaurtinib] + CO[C@@H]1[C@H](N(C)C(=O)c2ccccc2)C[C@H]2O[C@]1(C)n1c3ccccc3c3c4c(c5c6ccccc6n2c5c31)C(=O)NC4 [Midostaurin] (first compound 0.004 µM, partner dose 0.08 µM), the “cleaved PARP positive nuclei fraction” value came to 95.3% in the experiment on 501Mel; 46.4% with A101D; 155% with A2058; 45.3% with A375; 88.3% in the experiment with C32; 216% in the experiment with CBRC008. The “cleaved PARP positive nuclei fraction” value in the experiment with CBRC013 was 103%; in the experiment on CBRC014 it was 76.4%; with CBRC016, 78.6%; in the experiment with CBRC017, 225%.
As for `COc1cc([C@@H]2c3cc4c(cc3[C@@H](O[C@@H]3O[C@@H]5CO[C@@H](C)O[C@H]5[C@H](O)[C@H]3O)[C@H]3COC(=O)[C@H]23)OCO4)cc(OC)c1O` [etoposide] + N.N.[Cl][Pt][Cl] [cisplatin] (first compound 0.02 µM, partner dose 1.6 µM), the “cleaved PARP positive nuclei fraction” value was 144% in the experiment on 501Mel; 94.5% in the experiment with A101D; 190% in the experiment on A2058; 268% with A375; 89.4% in the experiment on C32; 105% with CBRC008. The entries for the “cleaved PARP positive nuclei fraction” value with CBRC014 and in the experiment on CBRC016 were 131% and 119%, respectively.
Regarding `C[C@]12O[C@H](C[C@]1(O)CO)n1c3ccccc3c3c4c(c5c6ccccc6n2c5c31)CNC4=O` [Lestaurtinib] + Cc1cc(N2CCOCC2)cc2[nH]c(-c3c(NC[C@@H](O)c4cccc(Cl)c4)cc[nH]c3=O)nc12 [BMS536924] (first compound 0.004 µM, partner dose 0.2 µM), the “cleaved PARP positive nuclei fraction” value with 501Mel came out at 183%; in the experiment with A101D, 36.1%; with A2058, 90.7%; in the experiment with A375, 280%; in the experiment with C32, 135%; in the experiment on CBRC008 it was 739%. For the same compound, the “cleaved PARP positive nuclei fraction” value came out at 111% in the experiment on CBRC013 (line from a melanoma biopsy), 89.9% in the experiment with CBRC014, 45.7% in the experiment with CBRC016 and 75.2% in the experiment with CBRC017.
Take `N.N.[Cl][Pt][Cl]` [cisplatin] + CN(C)S(=O)(=O)c1ccc2c(c1)/C(=C/c1cc3c([nH]1)CCCC3)C(=O)N2 [SU6656] (first compound 1.6 µM, partner dose 0.4 µM): the “cleaved PARP positive nuclei fraction” value in the experiment on 501Mel was found to be 80.5%; with A101D it was 121%; in the experiment on A2058, 81.7%; with A375 it was 70.6%; in the experiment with C32 it was 95.2%; in the experiment on CBRC008, 407%. Moreover, the “cleaved PARP positive nuclei fraction” value with CBRC013 was 97.2%; in the experiment on CBRC014, 146%; in the experiment on CBRC016, 121%; in the experiment on CBRC017 it was 121%.
Take `CC[C@]1(O)C[C@H]2CN(CCc3c([nH]c4ccccc34)[C@@](C(=O)OC)(c3cc4c(cc3OC)N(C=O)[C@H]3[C@@](O)(C(=O)OC)[C@H](OC(C)=O)[C@]5(CC)C=CCN6CC[C@]43[C@@H]65)C2)C1` [vincristine] + N.N.[Cl][Pt][Cl] [cisplatin] (first compound 0.0001 µM, partner dose 1.6 µM): the “cleaved PARP positive nuclei fraction” value in the experiment with 501Mel worked out at 150%; in the experiment on A101D, 211%; with A2058, 182%; in the experiment with A375 it was 42.2%; with C32 it was 75.1%; in the experiment with CBRC008 it was 87.6%. Moreover, the “cleaved PARP positive nuclei fraction” value is 99.7% in the experiment with CBRC014, 127% with CBRC016 and 152% in the experiment with CBRC017.
For `C[C@]12O[C@H](C[C@]1(O)CO)n1c3ccccc3c3c4c(c5c6ccccc6n2c5c31)CNC4=O` [Lestaurtinib] + C[C@@H]1CCN(C(=O)CC#N)C[C@@H]1N(C)c1ncnc2[nH]ccc12 [CP690550] (first compound 0.004 µM, partner dose 1 µM), the “cleaved PARP positive nuclei fraction” value in the experiment with 501Mel turned out to be 79.1%; with A101D, 71.9%; with A2058 it was 178%; in the experiment on A375 it was 246%; with C32, 31.4%; in the experiment on CBRC008 it was 46.4%. Moreover, the “cleaved PARP positive nuclei fraction” value with CBRC013 stood at 105%; in the experiment on CBRC014 it was 78.4%; with CBRC016, 31.3%; with CBRC017, 103%.

Values taken from the supplement of paper PMC4604168 (melanoma cell lines).
